These results are taken from article PMC9365803, “Identification of a HTT-specific binding motif in DNAJB1 essential for suppression and disaggregation of HTT” (Nature Communications, 2022).

Sequences of proteins named here, by UniProt entry; tags and fusion partners are left off. A change or cut given only in a name is not applied to a line headed by its entry. Residues count along the entry.
UniProt P25685, residues 1-323: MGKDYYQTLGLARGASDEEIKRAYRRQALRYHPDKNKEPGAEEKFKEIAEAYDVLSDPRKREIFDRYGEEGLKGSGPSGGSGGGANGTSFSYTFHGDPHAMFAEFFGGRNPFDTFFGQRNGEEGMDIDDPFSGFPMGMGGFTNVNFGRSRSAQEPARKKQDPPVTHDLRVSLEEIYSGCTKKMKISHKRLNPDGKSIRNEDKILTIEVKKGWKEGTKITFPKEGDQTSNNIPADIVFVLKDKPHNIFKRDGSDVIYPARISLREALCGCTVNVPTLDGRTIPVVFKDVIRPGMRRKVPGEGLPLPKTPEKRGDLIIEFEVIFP
UniProt P34932: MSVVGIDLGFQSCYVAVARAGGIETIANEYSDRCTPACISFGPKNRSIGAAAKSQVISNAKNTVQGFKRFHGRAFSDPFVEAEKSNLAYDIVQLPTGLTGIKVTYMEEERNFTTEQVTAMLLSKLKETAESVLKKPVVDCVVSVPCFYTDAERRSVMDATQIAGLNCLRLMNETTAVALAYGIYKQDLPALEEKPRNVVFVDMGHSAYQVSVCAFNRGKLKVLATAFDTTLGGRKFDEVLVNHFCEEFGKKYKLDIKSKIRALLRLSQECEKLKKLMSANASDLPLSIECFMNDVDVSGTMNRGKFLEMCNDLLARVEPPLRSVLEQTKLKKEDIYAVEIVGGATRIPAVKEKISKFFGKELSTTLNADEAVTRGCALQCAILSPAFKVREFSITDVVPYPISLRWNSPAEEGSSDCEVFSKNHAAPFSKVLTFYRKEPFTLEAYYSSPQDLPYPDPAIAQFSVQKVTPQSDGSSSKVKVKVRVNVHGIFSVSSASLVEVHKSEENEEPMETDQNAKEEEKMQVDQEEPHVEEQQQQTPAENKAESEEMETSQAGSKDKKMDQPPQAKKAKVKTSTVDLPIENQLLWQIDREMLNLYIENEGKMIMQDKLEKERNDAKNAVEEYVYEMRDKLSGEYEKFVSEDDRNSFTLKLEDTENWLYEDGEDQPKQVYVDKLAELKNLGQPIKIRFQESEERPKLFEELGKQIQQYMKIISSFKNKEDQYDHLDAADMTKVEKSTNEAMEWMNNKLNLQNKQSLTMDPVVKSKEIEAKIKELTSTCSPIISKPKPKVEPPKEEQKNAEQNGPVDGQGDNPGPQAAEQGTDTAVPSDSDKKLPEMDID

No constants are given. Whether binding was seen depends on the method and setting.

One assay addresses HTTExon1Q48. Nature of the assay: cross-linking; XL-MS: HTTExon1Q23/48 incubated with Hsc70, DNAJB1 and Apg2 in the presence of ATP; 5–10 μM total protein, 0.5–1 mM SDA, 30 min at room temperature, UV photoactivation, SDS-PAGE, in-gel digestion with elastase, LC/MS; both purified.
A further assay addresses DNAJB1^ΔDD (human) (UniProt P25685). Nature of the assay: SEC; Superdex 75 10/300 GL and Superose 6; 30 mM HEPES-KOH pH 7.4, 50 mM KCl, 1 mM β-mercaptoethanol; 0.5 ml/min; Conalbumin and Ovalbumin as standards; both purified. (Size exclusion chromatography separates by hydrodynamic size, large species first.)

With Apg2 (from UniProt P34932 1-840), in the assay with HTTExon1Q48, the binding entry was “no binding (tested: 5–10 μM total protein)”.
Turning to “DNAJB1^ΔDD (from UniProt P25685 1-323) (domain or fragment)”, in the assay with DNAJB1^ΔDD (human), the binding result is “no binding”.
